Here are results for five molecules from article PMC6347605.

Chains of the proteins cited; added tags and fusions are not shown. Residues count along the entry.
UniProt O00327: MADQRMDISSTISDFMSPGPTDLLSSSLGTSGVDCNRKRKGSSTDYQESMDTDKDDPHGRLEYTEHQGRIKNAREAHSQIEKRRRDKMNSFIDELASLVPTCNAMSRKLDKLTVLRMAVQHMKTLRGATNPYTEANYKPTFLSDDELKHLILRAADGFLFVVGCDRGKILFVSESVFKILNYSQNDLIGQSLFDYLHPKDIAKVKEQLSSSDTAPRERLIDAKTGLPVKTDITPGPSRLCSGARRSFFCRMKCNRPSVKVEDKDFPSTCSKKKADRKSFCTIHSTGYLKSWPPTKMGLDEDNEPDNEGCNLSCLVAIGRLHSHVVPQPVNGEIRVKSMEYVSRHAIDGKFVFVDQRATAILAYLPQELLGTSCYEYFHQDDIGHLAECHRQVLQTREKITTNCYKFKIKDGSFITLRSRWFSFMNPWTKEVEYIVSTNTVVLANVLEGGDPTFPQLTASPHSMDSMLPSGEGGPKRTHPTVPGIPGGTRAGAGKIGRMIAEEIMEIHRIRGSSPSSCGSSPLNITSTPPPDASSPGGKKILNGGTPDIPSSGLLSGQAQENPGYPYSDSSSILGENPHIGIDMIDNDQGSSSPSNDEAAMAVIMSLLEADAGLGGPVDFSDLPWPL
UniProt Q9WTL8: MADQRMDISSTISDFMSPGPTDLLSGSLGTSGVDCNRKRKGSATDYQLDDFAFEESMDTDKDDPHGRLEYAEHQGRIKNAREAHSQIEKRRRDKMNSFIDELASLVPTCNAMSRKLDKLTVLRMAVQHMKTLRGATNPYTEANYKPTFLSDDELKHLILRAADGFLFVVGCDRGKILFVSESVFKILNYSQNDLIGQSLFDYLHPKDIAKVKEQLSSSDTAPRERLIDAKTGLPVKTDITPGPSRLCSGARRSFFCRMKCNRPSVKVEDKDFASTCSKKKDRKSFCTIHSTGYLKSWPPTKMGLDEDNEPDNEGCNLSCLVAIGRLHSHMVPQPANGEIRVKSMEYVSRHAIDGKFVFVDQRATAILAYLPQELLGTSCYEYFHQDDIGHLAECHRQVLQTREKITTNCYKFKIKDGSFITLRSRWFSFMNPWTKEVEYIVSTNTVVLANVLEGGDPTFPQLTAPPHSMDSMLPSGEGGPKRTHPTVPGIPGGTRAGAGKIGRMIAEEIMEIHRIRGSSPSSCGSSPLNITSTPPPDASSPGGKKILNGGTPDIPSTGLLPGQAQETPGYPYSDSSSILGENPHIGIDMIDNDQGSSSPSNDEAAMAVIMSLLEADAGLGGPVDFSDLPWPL
UniProt Q6PFD9, residues 1-880: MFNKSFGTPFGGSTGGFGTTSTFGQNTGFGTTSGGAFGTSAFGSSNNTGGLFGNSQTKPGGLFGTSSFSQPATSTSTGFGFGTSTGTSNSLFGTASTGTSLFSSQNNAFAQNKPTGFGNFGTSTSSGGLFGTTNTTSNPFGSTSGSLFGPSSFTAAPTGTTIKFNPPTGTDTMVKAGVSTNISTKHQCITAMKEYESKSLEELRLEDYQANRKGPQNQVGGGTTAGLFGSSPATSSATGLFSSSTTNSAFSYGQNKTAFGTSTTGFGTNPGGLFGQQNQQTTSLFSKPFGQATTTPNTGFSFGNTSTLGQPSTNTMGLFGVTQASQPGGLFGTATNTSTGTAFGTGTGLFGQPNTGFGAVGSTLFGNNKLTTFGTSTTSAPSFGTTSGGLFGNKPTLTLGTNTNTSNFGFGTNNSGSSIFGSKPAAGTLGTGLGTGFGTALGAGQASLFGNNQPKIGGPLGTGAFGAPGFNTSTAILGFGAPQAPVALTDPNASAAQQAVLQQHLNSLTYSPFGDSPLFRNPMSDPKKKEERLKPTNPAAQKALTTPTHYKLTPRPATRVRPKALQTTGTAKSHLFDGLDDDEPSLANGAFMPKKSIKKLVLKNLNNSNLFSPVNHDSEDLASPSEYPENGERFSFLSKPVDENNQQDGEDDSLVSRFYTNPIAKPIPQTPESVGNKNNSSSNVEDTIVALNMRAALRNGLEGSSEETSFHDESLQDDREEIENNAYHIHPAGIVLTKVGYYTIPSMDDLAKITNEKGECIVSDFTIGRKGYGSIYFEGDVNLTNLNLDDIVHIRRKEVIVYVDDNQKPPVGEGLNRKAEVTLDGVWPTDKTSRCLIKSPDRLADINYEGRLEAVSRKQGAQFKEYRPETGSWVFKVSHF
UniProt P52948, residues 1-880: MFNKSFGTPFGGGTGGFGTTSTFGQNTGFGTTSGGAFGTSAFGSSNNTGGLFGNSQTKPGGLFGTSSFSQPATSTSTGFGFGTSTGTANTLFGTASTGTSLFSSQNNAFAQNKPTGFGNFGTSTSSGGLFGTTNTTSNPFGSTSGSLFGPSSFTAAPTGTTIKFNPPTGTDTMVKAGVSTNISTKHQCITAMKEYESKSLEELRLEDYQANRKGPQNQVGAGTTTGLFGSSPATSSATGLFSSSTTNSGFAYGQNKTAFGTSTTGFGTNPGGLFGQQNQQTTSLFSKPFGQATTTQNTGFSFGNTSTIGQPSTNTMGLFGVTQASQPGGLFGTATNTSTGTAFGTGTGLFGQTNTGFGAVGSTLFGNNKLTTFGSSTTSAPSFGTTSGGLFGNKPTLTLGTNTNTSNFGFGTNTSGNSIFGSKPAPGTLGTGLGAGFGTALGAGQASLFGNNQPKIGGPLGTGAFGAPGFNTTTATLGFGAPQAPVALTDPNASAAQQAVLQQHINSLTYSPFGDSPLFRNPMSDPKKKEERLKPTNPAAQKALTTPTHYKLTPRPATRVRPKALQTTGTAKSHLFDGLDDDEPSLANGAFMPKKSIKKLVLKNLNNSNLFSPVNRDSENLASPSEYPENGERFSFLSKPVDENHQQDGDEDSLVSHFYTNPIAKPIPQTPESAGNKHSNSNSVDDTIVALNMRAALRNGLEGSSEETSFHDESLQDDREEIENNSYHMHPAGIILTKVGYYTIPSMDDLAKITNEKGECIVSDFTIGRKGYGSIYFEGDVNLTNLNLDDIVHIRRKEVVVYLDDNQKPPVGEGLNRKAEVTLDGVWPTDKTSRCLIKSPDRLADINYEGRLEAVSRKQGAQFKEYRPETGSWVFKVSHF

The target in assay [1] is T1, endogenous CLOCK (NIH3T3) (mouse (endogenous in NIH3T3)) (UniProt O08785).
T1 sequence: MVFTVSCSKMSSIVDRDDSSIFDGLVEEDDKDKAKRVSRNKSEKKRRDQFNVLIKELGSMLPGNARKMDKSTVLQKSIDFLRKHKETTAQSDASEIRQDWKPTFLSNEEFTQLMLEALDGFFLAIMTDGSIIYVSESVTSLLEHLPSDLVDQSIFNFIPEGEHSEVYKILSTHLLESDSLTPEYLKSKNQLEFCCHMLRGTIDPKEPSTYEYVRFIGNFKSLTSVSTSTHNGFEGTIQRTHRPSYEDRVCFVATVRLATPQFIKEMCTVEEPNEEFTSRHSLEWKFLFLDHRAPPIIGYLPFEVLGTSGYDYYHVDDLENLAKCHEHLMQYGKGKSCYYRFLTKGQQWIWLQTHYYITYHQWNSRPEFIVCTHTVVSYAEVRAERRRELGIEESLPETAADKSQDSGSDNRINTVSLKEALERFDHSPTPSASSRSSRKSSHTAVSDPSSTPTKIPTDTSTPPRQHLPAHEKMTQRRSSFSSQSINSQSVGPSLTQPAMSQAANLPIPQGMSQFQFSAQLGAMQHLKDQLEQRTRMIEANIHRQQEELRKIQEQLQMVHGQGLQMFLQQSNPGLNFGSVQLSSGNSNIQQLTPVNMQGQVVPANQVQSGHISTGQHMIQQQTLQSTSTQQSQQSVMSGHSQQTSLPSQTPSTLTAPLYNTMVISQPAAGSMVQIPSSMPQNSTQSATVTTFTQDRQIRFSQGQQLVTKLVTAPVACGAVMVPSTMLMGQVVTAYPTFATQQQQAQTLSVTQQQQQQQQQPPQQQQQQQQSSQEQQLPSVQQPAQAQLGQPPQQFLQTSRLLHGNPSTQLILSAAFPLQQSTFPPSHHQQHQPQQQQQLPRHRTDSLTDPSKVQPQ
The experiment in a line: co-IP; endogenous immunoprecipitation from NIH3T3 cells.

Assay [2] concerns the target T2, CLOCK-FLAG (UniProt O15516).
T2 sequence: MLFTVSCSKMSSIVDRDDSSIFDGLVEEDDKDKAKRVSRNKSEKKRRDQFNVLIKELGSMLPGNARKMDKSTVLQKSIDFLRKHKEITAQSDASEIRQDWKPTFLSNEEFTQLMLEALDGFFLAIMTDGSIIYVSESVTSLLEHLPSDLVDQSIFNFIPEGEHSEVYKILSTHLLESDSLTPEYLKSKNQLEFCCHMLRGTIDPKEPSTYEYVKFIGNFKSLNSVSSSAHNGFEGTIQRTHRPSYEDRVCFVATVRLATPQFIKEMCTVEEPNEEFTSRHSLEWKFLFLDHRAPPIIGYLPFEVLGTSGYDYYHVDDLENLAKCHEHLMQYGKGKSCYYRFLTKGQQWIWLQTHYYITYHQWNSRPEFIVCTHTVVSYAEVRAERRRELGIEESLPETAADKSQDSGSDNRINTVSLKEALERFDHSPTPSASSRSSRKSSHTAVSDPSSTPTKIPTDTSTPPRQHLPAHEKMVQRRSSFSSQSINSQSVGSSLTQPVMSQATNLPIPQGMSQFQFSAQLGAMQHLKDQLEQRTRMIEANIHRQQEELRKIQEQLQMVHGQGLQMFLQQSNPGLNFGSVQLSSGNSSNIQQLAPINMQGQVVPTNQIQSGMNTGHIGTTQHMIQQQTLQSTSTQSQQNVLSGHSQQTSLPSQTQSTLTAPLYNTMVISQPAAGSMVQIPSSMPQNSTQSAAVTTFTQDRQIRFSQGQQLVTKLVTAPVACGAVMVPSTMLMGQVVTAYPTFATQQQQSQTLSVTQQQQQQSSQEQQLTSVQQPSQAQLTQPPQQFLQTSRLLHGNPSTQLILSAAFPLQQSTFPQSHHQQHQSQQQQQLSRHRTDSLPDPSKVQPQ
Put plainly: co-IP; two-step immunoprecipitation; cells, constructs and antibodies not told.

Assay [3] addresses T3, RAE1-HA (UniProt P78406).
T3 sequence: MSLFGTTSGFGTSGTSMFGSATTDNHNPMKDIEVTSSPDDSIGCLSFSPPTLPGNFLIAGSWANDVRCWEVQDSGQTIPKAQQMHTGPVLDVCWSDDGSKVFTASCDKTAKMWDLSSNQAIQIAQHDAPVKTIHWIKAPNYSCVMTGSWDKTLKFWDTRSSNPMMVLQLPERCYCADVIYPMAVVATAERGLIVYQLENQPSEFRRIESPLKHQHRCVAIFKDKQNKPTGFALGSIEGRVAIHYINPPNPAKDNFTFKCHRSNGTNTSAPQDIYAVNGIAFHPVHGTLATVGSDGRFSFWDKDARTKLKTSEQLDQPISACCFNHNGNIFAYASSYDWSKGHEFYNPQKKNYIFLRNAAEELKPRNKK
Described as above.

In assay [4] the target is BMAL1-FLAG (UniProt O00327). The experiment in a line: co-IP; CLOCK-FLAG or BMAL1-FLAG coexpressed with RAE1-HA or NUP98-HA in HEK 293T cells; anti-FLAG and anti-HA antibodies for immunoprecipitation and immunoblotting; protein A+G agarose beads. On the technique in general: Immunoblotting shows a protein as a band on a membrane.
Assay [5] has as its target T2, CLOCK-FLAG. Described as above.
Assay [6] has as its target T2, CLOCK-FLAG. Put plainly: co-IP; two-step immunoprecipitation; cells, constructs and antibodies not told. This is another data set of the same source.
The target in assay [7] is endogenous BMAL1 (NIH3T3) (mouse (endogenous in NIH3T3)) (UniProt Q9WTL8). Put plainly: co-IP; endogenous immunoprecipitation from NIH3T3 cells.
Assay [8] shares this target. Put plainly: co-IP; nuclear lysates of NIH3T3 cells after cytosolic/nuclear fractionation, control and RAE1 or NUP98 knockdown; immunoprecipitated with anti-BMAL1 or anti-CLOCK.

No constants are given. Whether binding was seen depends on the method and setting. Binding seen in cells or lysates may run through a third protein. Some binding calls cover weakened binding; strength is not graded here. For some assays here: Where a sequence is shown, tags or fusion partners need not be part of it.

As for “endogenous NUP98 (NIH3T3) (from UniProt Q6PFD9 1-880)”, the binding entry in assay [1] is reported as “binds”.
NUP98-HA (from UniProt P52948 1-880): the binding result in assay [2] is “binds”; in assay [3], “binds”; in assay [4], “no binding”; in assay [5] it was “binds”.

B1: RAE1-HA (protein, UniProt P78406 1-368)
chain: MSLFGTTSGFGTSGTSMFGSATTDNHNPMKDIEVTSSPDDSIGCLSFSPPTLPGNFLIAGSWANDVRCWEVQDSGQTIPKAQQMHTGPVLDVCWSDDGSKVFTASCDKTAKMWDLSSNQAIQIAQHDAPVKTIHWIKAPNYSCVMTGSWDKTLKFWDTRSSNPMMVLQLPERCYCADVIYPMAVVATAERGLIVYQLENQPSEFRRIESPLKHQHRCVAIFKDKQNKPTGFALGSIEGRVAIHYINPPNPAKDNFTFKCHRSNGTNTSAPQDIYAVNGIAFHPVHGTLATVGSDGRFSFWDKDARTKLKTSEQLDQPISACCFNHNGNIFAYASSYDWSKGHEFYNPQKKNYIFLRNAAEELKPRNKK
B1: the binding entry in assay [6], in assay [4] and in assay [5] was “binds” in each case.

B2: endogenous RAE1 (NIH3T3) (protein, UniProt Q8C570 1-368)
chain: MSLFGSTSGFGTGGTSMFGSTTTDNHNPMKDIEVTSSPDDSIGCLSFSPPTLPGNFLIAGSWANDVRCWEVQDSGQTIPKAQQMHTGPVLDVCWSDDGSKVFTASCDKTAKMWDLNSNQAIQIAQHDAPVKTIHWIKAPNYSCVMTGSWDKTLKFWDTRSSNPMMVLQLPERCYCADVIYPMAVVATAERGLIVYQLENQPSEFRRIESPLKHQHRCVAIFKDKQNKPTGFALGSIEGRVAIHYINPPNPAKDNFTFKCHRSNGTNTSAPQDIYAVNGIAFHPVHGTLATVGSDGRFSFWDKDARTKLKTSEQLDQPIAACCFNHNGNIFAYASSYDWSKGHEFYNPQKKNYIFLRNAAEELKPRNKK
As for B2, the binding entry in assay [7] and in assay [1] was “binds” in each case.

B3: endogenous CLOCK (NIH3T3) (protein, UniProt O08785 1-855)
chain: MVFTVSCSKMSSIVDRDDSSIFDGLVEEDDKDKAKRVSRNKSEKKRRDQFNVLIKELGSMLPGNARKMDKSTVLQKSIDFLRKHKETTAQSDASEIRQDWKPTFLSNEEFTQLMLEALDGFFLAIMTDGSIIYVSESVTSLLEHLPSDLVDQSIFNFIPEGEHSEVYKILSTHLLESDSLTPEYLKSKNQLEFCCHMLRGTIDPKEPSTYEYVRFIGNFKSLTSVSTSTHNGFEGTIQRTHRPSYEDRVCFVATVRLATPQFIKEMCTVEEPNEEFTSRHSLEWKFLFLDHRAPPIIGYLPFEVLGTSGYDYYHVDDLENLAKCHEHLMQYGKGKSCYYRFLTKGQQWIWLQTHYYITYHQWNSRPEFIVCTHTVVSYAEVRAERRRELGIEESLPETAADKSQDSGSDNRINTVSLKEALERFDHSPTPSASSRSSRKSSHTAVSDPSSTPTKIPTDTSTPPRQHLPAHEKMTQRRSSFSSQSINSQSVGPSLTQPAMSQAANLPIPQGMSQFQFSAQLGAMQHLKDQLEQRTRMIEANIHRQQEELRKIQEQLQMVHGQGLQMFLQQSNPGLNFGSVQLSSGNSNIQQLTPVNMQGQVVPANQVQSGHISTGQHMIQQQTLQSTSTQQSQQSVMSGHSQQTSLPSQTPSTLTAPLYNTMVISQPAAGSMVQIPSSMPQNSTQSATVTTFTQDRQIRFSQGQQLVTKLVTAPVACGAVMVPSTMLMGQVVTAYPTFATQQQQAQTLSVTQQQQQQQQQPPQQQQQQQQSSQEQQLPSVQQPAQAQLGQPPQQFLQTSRLLHGNPSTQLILSAAFPLQQSTFPPSHHQQHQPQQQQQLPRHRTDSLTDPSKVQPQ
Regarding B3, in assay [8], the binding result is recorded as “binds”.
